Only a part is listed here, and it is no random draw. The calls were merged from several studies; some rest on single wells. This is one part of the list.
What was measured:
Conditions in all cases: stereoisomer not certain
OR51D1 (Homo sapiens) = target: T1, OR51D1 (Homo sapiens) (UniProt Q8NGF3)
T1 sequence (whole entry): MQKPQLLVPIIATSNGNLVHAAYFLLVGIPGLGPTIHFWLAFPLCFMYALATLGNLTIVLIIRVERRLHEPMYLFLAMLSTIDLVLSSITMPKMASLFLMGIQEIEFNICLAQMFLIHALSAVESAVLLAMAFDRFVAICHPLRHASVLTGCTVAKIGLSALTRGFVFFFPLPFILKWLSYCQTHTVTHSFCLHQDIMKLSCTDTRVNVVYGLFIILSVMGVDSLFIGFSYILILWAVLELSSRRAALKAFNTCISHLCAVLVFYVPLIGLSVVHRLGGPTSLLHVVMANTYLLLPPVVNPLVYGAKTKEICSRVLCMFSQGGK
How it was run: (§1)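 Transient luciferase assays in mammalian cell lines were common, though methods varied by source. The values come from published papers and their supplementary material, with extra details from the original authors when needed. Responsive refers to a measured signal the original authors judged statistically different from baseline, and non-responsive (inactive) to the remainder.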

OR51E1 (Homo sapiens) [1] = target: T2, OR51E1 (Homo sapiens) (UniProt Q8TCB6)
T2 sequence (whole entry): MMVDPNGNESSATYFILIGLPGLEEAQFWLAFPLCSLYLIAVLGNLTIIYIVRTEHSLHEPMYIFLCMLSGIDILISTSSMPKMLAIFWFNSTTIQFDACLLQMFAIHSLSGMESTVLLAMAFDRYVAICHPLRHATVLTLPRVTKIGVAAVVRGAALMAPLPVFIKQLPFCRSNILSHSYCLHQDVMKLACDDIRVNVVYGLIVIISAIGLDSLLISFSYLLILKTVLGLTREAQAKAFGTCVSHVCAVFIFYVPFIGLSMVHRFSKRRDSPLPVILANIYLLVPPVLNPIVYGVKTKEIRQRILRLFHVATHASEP
How it was run: as §1

OR51E2 (Homo sapiens) = target: T3, OR51E2 (Homo sapiens) (UniProt Q9H255)
T3 sequence (whole entry): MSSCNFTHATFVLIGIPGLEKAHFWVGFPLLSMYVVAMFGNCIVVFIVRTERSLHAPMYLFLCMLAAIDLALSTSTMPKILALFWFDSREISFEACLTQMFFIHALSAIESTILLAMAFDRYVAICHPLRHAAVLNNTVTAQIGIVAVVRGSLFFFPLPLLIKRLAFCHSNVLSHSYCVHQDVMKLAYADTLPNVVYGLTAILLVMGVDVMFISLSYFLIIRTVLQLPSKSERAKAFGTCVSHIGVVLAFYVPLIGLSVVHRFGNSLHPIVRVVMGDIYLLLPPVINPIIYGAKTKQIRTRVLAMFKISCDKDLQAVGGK
How it was run: as §1

OR51G1 (Homo sapiens) = target: T4, OR51G1 (Homo sapiens) (UniProt Q8NGK1)
T4 sequence (whole entry): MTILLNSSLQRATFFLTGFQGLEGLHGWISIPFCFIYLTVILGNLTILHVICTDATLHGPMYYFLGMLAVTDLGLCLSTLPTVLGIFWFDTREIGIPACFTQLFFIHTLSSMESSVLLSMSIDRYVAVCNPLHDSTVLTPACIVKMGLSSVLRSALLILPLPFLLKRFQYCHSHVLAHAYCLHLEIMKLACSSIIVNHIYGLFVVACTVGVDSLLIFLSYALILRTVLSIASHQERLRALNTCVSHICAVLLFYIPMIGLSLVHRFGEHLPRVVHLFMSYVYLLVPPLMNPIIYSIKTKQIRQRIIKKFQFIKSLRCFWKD
How it was run: as §1

OR51H1 (Homo sapiens) = target: T5, OR51H1 (Homo sapiens) (UniProt Q8NH63)
T5 sequence (whole entry): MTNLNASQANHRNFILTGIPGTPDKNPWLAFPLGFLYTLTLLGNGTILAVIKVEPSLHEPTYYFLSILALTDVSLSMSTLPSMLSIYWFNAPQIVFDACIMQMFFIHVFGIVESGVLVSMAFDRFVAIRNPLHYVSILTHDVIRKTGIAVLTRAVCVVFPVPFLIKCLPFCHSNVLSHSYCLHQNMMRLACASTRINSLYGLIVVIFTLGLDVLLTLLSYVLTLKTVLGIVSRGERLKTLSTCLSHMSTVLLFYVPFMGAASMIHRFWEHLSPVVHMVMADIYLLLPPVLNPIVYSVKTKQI
How it was run: as §1

OR51E1 (Homo sapiens) [2] = target: T6, OR51E1 (Homo sapiens) (UniProt Q8TCB6); remark: listed apart in the source
T6 sequence (whole entry): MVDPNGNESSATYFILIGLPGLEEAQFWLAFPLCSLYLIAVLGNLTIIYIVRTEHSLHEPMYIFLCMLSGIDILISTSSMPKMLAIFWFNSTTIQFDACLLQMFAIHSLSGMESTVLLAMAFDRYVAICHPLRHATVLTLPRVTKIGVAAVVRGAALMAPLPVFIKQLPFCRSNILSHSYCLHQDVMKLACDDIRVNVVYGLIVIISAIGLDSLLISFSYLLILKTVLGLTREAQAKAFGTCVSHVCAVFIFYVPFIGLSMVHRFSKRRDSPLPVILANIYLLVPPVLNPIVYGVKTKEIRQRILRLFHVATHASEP
How it was run: as §1

OR51F1 (Homo sapiens) = target: T7, OR51F1 (Homo sapiens) (UniProt A6NGY5)
T7 sequence (whole entry): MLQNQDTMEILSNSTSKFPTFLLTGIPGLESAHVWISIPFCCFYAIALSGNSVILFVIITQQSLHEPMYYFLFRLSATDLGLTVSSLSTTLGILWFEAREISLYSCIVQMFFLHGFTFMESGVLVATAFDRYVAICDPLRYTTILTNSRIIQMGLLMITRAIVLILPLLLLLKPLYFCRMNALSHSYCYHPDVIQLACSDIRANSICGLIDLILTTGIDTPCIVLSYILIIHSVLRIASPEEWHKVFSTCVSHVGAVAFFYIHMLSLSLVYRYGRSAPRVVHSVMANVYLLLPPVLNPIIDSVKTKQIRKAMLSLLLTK
How it was run: as §1

OR51F2 (Homo sapiens) = target: T8, OR51F2 (Homo sapiens) (UniProt Q8NH61)
T8 sequence (whole entry): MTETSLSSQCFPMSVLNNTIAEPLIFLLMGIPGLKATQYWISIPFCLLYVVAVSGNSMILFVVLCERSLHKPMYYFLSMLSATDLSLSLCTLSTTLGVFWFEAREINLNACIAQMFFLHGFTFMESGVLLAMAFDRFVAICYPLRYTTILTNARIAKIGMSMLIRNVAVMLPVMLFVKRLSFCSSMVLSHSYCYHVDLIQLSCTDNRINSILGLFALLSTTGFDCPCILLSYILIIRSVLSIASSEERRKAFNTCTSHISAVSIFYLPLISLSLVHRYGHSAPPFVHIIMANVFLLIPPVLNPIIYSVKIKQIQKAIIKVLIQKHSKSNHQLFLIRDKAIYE
How it was run: as §1

OR51G2 (Homo sapiens) = target: T9, OR51G2 (Homo sapiens) (UniProt Q8NGK0)
T9 sequence (whole entry): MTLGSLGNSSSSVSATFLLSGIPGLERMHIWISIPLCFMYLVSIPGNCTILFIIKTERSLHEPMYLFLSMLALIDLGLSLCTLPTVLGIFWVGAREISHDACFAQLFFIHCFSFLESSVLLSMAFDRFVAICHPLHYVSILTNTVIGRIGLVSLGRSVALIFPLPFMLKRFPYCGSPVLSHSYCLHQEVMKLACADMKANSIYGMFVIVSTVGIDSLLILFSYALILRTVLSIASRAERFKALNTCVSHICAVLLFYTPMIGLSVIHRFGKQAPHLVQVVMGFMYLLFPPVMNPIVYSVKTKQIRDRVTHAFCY
How it was run: as §1

Measured: odorant receptor agonist call

CC12C=CCC1C1CCC3=CC(=O)CCC3(C)C1CC2 (stereo not drawn)
inactive: OR51D1 (Homo sapiens) | OR51E1 (Homo sapiens) [1] | OR51E2 (Homo sapiens) | OR51G1 (Homo sapiens) | OR51H1 (Homo sapiens)

COc1ccccc1O
inactive: OR51D1 (Homo sapiens) | OR51E1 (Homo sapiens) [1] | OR51E2 (Homo sapiens) | OR51G1 (Homo sapiens) | OR51H1 (Homo sapiens)

C=CCc1ccc(OC)c(OC)c1
active: OR51E2 (Homo sapiens)
inactive: OR51D1 (Homo sapiens) | OR51E1 (Homo sapiens) [1] | OR51G1 (Homo sapiens) | OR51H1 (Homo sapiens)

CC12C=CCC1C1CCC3CC(=O)CCC3(C)C1CC2 (stereo not drawn)
inactive: OR51E1 (Homo sapiens) [1] | OR51E1 (Homo sapiens) [2] | OR51F1 (Homo sapiens) | OR51F2 (Homo sapiens) | OR51G2 (Homo sapiens)

CC(C)C=O
inactive: OR51D1 (Homo sapiens) | OR51E1 (Homo sapiens) [1] | OR51E2 (Homo sapiens) | OR51G1 (Homo sapiens) | OR51H1 (Homo sapiens)

COC(=O)c1ccccc1O
inactive: OR51D1 (Homo sapiens) | OR51E1 (Homo sapiens) [1] | OR51E2 (Homo sapiens) | OR51G1 (Homo sapiens) | OR51H1 (Homo sapiens)

O=C1CCCCCCCCCCCC(=O)OCCO1
active: OR51E1 (Homo sapiens) [1] | OR51G1 (Homo sapiens)
inactive: OR51D1 (Homo sapiens) | OR51E2 (Homo sapiens) | OR51H1 (Homo sapiens)

COc1cc(C)ccc1O
inactive: OR51D1 (Homo sapiens) | OR51E1 (Homo sapiens) [1] | OR51E2 (Homo sapiens) | OR51G1 (Homo sapiens) | OR51H1 (Homo sapiens)

CC12CCC(CC1)C(C)(C)O2
inactive: OR51D1 (Homo sapiens) | OR51E1 (Homo sapiens) [1] | OR51E2 (Homo sapiens) | OR51G1 (Homo sapiens) | OR51H1 (Homo sapiens)

C=CCSCC=C
inactive: OR51D1 (Homo sapiens) | OR51E2 (Homo sapiens) | OR51G1 (Homo sapiens) | OR51H1 (Homo sapiens)
active: OR51E1 (Homo sapiens) [1]

CC1CCC(C(C)C)C(O)C1 (stereo not drawn)
active: OR51E1 (Homo sapiens) [1]
inactive: OR51D1 (Homo sapiens) | OR51E2 (Homo sapiens) | OR51G1 (Homo sapiens) | OR51H1 (Homo sapiens)

O=CCc1ccccc1
inactive: OR51D1 (Homo sapiens) | OR51E1 (Homo sapiens) [1] | OR51E2 (Homo sapiens) | OR51G1 (Homo sapiens) | OR51H1 (Homo sapiens)

CCC=CCCO
inactive: OR51D1 (Homo sapiens) | OR51E1 (Homo sapiens) [1] | OR51E2 (Homo sapiens) | OR51G1 (Homo sapiens) | OR51H1 (Homo sapiens)

CC(C)=CCCC(C)=CC=O
active: OR51E1 (Homo sapiens) [1]
inactive: OR51D1 (Homo sapiens) | OR51E2 (Homo sapiens) | OR51G1 (Homo sapiens) | OR51H1 (Homo sapiens)

CCCCCCCCOC(C)=O
active: OR51E1 (Homo sapiens) [1]
inactive: OR51D1 (Homo sapiens) | OR51E2 (Homo sapiens) | OR51G1 (Homo sapiens) | OR51H1 (Homo sapiens)

CCCCCCCC=CC=O
inactive: OR51D1 (Homo sapiens) | OR51E1 (Homo sapiens) [1] | OR51E2 (Homo sapiens) | OR51G1 (Homo sapiens) | OR51H1 (Homo sapiens)

2 compounds drawn at random from the list so far, as already listed:
CC(C)=CCCC(C)=CC=O
active: OR51E1 (Homo sapiens) [1]
inactive: OR51D1 (Homo sapiens) | OR51E2 (Homo sapiens) | OR51G1 (Homo sapiens) | OR51H1 (Homo sapiens)

CCCCCCCCOC(C)=O
active: OR51E1 (Homo sapiens) [1]
inactive: OR51D1 (Homo sapiens) | OR51E2 (Homo sapiens) | OR51G1 (Homo sapiens) | OR51H1 (Homo sapiens)

Going on with the list:

CCCCCCC=O
inactive: OR51E1 (Homo sapiens) [2] | OR51E2 (Homo sapiens)

CC(C)CC(=O)O
active: OR51E1 (Homo sapiens) [1]
inactive: OR51D1 (Homo sapiens) | OR51E2 (Homo sapiens) | OR51G1 (Homo sapiens) | OR51H1 (Homo sapiens)

CCCCO
active: OR51E1 (Homo sapiens) [1]
inactive: OR51D1 (Homo sapiens) | OR51E2 (Homo sapiens) | OR51G1 (Homo sapiens) | OR51H1 (Homo sapiens)

C=CCc1ccc(OC(C)=O)c(OC)c1
inactive: OR51D1 (Homo sapiens) | OR51E1 (Homo sapiens) [1] | OR51G1 (Homo sapiens) | OR51H1 (Homo sapiens)
active: OR51E2 (Homo sapiens)

CCCCCCCCC=O
inactive: OR51E1 (Homo sapiens) [2] | OR51E2 (Homo sapiens)

C=CC(C)(O)CCC=C(C)C (stereo not drawn)
inactive: OR51D1 (Homo sapiens) | OR51E1 (Homo sapiens) [1] | OR51E2 (Homo sapiens) | OR51G1 (Homo sapiens) | OR51H1 (Homo sapiens)

CCC1(O)C2(C)CCC(C2)C1(C)C (stereo not drawn)
inactive: OR51D1 (Homo sapiens) | OR51E2 (Homo sapiens) | OR51G1 (Homo sapiens) | OR51H1 (Homo sapiens)
active: OR51E1 (Homo sapiens) [1]

COC(=O)c1ccccc1
inactive: OR51D1 (Homo sapiens) | OR51E2 (Homo sapiens) | OR51G1 (Homo sapiens) | OR51H1 (Homo sapiens)
active: OR51E1 (Homo sapiens) [1]

CCCCCCCOC(C)=O
inactive: OR51D1 (Homo sapiens) | OR51E1 (Homo sapiens) [1] | OR51E2 (Homo sapiens) | OR51G1 (Homo sapiens) | OR51H1 (Homo sapiens)

CC(C)(O)CCCC1=CCC(C=O)CC1 (stereo not drawn)
inactive: OR51E1 (Homo sapiens) [2] | OR51E2 (Homo sapiens)

CC(C)(C)c1ccc(CCC=O)cc1
inactive: OR51D1 (Homo sapiens) | OR51E1 (Homo sapiens) [1] | OR51E2 (Homo sapiens) | OR51G1 (Homo sapiens) | OR51H1 (Homo sapiens)

c1ccc(Oc2ccccc2)cc1
inactive: OR51D1 (Homo sapiens) | OR51E1 (Homo sapiens) [1] | OR51E2 (Homo sapiens) | OR51G1 (Homo sapiens) | OR51H1 (Homo sapiens)

C=C(C)C1CC=C(C)C(=O)C1 (stereo not drawn)
inactive: OR51E1 (Homo sapiens) [2] | OR51E2 (Homo sapiens)

CC=Cc1ccc(O)c(OC)c1
inactive: OR51D1 (Homo sapiens) | OR51E1 (Homo sapiens) [1] | OR51E2 (Homo sapiens) | OR51G1 (Homo sapiens) | OR51H1 (Homo sapiens)
